# Results published in patent US12357582B2, “Hydrophobic ion pairing and flash nanoprecipitation for formation of controlled-release nanocarrier formulations” (The Trustees of Princeton University, priority 2017, dated 2025).
# Counter-ions that a name gives are not always drawn. At least one compound was matched to its structure with a doubt left.
# Experiments:
# [1] = Ion-pairing screening using gentamicin API; assay type: physicochemical; parameters: key to Reprecipitation: + details reprecipitation observed; − details no reprecipitation observed; key to Organic Dissolution: ++ details complete dissolution; + details non-complete dissolution; key to Precipitation: +++: + details qualitative observations of the amount of solid formed; ++: + details qualitative observations of the amount of solid formed; + details qualitative observations of the amount of solid formed; − details no solids formed
# Experimental: (§1) The fifteen ion pairing (IP) reagents listed above were screened to assess if hydrophobic API salt forms would be formed and would precipitate from solution. Ion pair and API drug properties were calculated with Molinspiration software (Molinspiration Cheminformatics, Slovakia). APIs were dissolved in water at 5 mg mL^−1 concentration and mixed with IPs dissolved in water at varying concentrations to yield different API to IP ratios. The screening process determines whether a particular IP may be used with a given API for NC formation.
# (§2) In the case of pre-ion pairing, API and IP are mixed in water to form a water-insoluble precipitate (referred to as an API:IP complex). The water is then removed, and the API:IP complex is dissolved into an organic solvent (along with a block copolymer) for use in the organic stream in FNP. In this case, the API:IP complex is treated as a component in the organic stream of normal FNP. The screening process for the pre-ion paired method FNP involves four sequential tests. • 1. The first test examines the solubility of the IP agent. IP is added to DI water at a concentration that would be required for a 1:1 API:IP charge ratio if the API were dissolved at 5 mg mL^−1. (In this text the ratios are presented as charge ratios of API:IP.) Substantial […] in water is required for successful ion pairing. • 2. The second test examines whether an in situ API:IP complex can be formed in a single step. For example, The second test examines whether solids precipitate upon mixing of the aqueous IP solution with an aqueous API solution. Alternatively, IP in an organic, but water miscible, solution is mixed against the aqueous API solution. The final solution is checked visually to see if precipitation has occurred. In this test, the IP solution is at a concentration such that mixing equal volumes of IP solution and API solution will form a 1:1 API to IP charge ratio. […]
# [2] = Ion-pairing screening using polymyxin B API; assay type: physicochemical; parameters: key to Reprecipitation: + details re-precipitation observed; − details no re-precipitation observed; key to Organic Dissolution: ++ details complete dissolution; + details non-complete dissolution; key to Precipitation: +++: + details qualitative observations of the amount of solid formed; ++: + details qualitative observations of the amount of solid formed; + details qualitative observations of the amount of solid formed; − details no solids formed
# Experimental: as §1
# as §2, with “ratio. Four API:IP ratios are investigated: 200 μL API solution is mixed with 100 μL IP solution for a 1:0.5 charge ratio; 200 μL API solution is mixed with 200 μL IP solution for a 1:1 charge ratio; 200 μL API solution is mixed with 400 μL IP solution for a 1:2 charge ratio; and 200 μL API solution is mixed with 800 μL IP solution for a 1:4 charge ratio. • 3. The third test examines whether the API:IP complex can be solubilized in the organic phase for subsequent FNP NC formation. Pellets of the precipitate formed in the second test are tested to see if they are soluble in a water-miscible organic solvent such as tetrahydrofuran (THF) or more polar solvents such as dimethyl sulfoxide (DMSO) or methanol (MeOH).” for “ratio.”
smiles,measurement,setting,value
"O=C(O)c1cc2ccccc2c(Cc2c(O)c(C(=O)O)cc3ccccc23)c1O [Pamoic Acid Disodium Salt, pamoic acid disodium salt]",Precipitation,[1]; gentamicin API mixed with IP in water,+
same,Reprecipitation,[1]; gentamicin:IP organic solution diluted ten-fold in water,+
same,Organic Dissolution,[1]; gentamicin:IP pellet in organic solvent (THF),+
same,precipitation upon mixing and NC formation,"[2]; FIG. 4, polymyxin",rapid precipitation and successful NC formation
same,Precipitation,[2]; polymyxin B API mixed with IP in water,++
same,Reprecipitation,[2]; polymyxin B:IP organic solution diluted ten-fold in water,+
same,Organic Dissolution,[2]; polymyxin B:IP pellet in organic solvent (THF),+
